According to the supplement of paper PMC10849652:
The list shows a part of the results.

Protein sequences, listed by entry. Tags and fused reporters are not part of them. Lines headed by an entry give the natural chain unless they say otherwise; changes in a name come on top.
UniProt Q6XQN6: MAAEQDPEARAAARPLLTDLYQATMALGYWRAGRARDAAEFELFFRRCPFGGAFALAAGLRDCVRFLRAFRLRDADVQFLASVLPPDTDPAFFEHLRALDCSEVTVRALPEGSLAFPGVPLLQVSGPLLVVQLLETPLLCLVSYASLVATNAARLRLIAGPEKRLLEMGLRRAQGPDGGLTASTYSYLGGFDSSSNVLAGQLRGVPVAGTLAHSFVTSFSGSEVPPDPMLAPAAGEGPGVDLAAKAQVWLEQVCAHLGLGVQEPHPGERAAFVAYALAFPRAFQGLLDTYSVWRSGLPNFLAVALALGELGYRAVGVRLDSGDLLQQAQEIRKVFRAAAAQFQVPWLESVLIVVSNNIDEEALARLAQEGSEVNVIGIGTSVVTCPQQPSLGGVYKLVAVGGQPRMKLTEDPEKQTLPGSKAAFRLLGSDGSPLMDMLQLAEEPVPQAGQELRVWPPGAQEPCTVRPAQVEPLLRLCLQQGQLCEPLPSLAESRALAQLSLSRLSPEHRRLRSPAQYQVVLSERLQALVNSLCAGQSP
UniProt Q8NHV4, whole entry, looked up: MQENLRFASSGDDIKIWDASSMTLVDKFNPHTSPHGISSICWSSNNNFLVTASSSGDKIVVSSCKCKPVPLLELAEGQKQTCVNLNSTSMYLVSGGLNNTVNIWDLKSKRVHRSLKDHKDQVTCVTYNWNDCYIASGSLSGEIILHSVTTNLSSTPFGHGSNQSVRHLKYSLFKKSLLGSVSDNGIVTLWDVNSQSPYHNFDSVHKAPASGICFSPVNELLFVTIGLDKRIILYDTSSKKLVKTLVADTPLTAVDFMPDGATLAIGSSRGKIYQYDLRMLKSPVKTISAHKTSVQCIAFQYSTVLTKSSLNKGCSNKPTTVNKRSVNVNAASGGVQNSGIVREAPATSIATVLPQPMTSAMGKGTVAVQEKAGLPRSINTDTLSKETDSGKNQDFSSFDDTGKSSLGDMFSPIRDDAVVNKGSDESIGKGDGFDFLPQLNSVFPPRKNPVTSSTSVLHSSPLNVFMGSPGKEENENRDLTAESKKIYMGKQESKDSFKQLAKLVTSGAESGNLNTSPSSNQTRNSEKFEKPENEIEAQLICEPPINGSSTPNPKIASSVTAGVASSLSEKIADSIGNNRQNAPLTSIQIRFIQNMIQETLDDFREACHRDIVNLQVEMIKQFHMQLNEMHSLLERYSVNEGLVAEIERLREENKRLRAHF
UniProt O43674, whole entry, looked up: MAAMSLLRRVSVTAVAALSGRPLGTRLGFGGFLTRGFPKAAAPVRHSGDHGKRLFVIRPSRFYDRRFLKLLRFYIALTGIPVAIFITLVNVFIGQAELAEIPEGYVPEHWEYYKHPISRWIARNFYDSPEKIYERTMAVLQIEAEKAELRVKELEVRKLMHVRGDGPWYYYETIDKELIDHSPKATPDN
UniProt O43920, whole entry, looked up: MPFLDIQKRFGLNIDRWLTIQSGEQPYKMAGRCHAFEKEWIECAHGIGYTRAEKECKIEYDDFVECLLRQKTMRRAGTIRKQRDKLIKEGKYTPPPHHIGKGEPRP
UniProt Q147X3: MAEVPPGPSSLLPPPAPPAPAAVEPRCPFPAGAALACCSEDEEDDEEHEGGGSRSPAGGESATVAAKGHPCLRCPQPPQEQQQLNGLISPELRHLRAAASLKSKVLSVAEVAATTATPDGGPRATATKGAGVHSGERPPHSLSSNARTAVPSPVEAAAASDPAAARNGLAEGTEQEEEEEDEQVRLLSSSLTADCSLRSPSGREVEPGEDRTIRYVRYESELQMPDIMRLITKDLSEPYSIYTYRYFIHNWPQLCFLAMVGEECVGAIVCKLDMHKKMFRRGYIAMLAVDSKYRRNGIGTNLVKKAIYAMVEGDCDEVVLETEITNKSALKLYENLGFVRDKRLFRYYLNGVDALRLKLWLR
UniProt Q96NT1: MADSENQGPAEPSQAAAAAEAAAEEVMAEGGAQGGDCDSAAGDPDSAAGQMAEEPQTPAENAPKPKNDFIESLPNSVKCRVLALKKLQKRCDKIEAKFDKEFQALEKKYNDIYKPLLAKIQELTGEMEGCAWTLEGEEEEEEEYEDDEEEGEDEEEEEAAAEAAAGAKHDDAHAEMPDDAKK
UniProt P52298: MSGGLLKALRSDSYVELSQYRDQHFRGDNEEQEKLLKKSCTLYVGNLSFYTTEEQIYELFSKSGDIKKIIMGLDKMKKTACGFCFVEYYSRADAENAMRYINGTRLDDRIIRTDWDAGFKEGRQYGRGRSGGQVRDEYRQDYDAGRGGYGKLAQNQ
UniProt Q9P0J0, whole entry, looked up: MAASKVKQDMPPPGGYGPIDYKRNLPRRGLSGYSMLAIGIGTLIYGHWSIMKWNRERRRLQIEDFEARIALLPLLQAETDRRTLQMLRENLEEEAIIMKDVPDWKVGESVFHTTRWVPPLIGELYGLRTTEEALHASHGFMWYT
UniProt Q92542, whole entry, looked up: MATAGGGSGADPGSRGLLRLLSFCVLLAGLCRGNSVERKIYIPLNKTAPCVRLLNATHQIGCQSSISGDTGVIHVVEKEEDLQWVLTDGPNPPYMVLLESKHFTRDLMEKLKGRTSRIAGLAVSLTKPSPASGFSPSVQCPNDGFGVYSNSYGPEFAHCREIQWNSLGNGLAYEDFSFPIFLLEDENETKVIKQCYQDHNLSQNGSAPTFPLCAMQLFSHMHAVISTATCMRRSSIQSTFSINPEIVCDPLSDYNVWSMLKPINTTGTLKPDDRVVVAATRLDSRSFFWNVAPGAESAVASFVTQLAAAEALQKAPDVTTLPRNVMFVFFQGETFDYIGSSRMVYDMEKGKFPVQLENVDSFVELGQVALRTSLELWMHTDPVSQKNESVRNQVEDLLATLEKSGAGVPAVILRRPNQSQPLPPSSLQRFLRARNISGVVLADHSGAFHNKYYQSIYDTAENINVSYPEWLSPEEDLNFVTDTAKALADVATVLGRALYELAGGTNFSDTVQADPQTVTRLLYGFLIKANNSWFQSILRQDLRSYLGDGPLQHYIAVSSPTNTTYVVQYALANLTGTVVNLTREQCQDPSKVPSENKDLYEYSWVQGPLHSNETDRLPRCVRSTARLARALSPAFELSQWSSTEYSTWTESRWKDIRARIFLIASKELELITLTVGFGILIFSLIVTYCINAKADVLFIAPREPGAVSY
UniProt Q8IW45: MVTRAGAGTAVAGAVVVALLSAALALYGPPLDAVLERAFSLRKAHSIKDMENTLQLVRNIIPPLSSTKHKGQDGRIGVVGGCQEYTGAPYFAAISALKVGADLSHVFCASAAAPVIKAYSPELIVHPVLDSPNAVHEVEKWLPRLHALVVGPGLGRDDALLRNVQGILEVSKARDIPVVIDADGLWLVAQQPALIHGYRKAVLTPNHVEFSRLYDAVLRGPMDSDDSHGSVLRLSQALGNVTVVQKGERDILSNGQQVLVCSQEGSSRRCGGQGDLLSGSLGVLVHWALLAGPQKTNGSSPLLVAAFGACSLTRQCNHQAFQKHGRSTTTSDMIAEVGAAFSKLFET
UniProt Q8NC96: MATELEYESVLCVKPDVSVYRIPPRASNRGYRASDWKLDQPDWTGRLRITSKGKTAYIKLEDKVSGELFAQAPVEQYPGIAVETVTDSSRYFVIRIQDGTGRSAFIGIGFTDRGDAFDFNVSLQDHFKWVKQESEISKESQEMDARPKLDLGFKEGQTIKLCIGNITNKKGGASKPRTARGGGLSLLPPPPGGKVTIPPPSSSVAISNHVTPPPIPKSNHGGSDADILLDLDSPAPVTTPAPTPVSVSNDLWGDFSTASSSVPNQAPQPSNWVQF
UniProt Q9BU61: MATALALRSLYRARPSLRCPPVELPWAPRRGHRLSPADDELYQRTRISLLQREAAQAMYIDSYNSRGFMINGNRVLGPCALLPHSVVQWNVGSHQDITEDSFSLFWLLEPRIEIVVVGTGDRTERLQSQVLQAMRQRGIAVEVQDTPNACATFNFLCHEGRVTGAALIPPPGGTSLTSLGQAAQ
UniProt P28331, whole entry, looked up: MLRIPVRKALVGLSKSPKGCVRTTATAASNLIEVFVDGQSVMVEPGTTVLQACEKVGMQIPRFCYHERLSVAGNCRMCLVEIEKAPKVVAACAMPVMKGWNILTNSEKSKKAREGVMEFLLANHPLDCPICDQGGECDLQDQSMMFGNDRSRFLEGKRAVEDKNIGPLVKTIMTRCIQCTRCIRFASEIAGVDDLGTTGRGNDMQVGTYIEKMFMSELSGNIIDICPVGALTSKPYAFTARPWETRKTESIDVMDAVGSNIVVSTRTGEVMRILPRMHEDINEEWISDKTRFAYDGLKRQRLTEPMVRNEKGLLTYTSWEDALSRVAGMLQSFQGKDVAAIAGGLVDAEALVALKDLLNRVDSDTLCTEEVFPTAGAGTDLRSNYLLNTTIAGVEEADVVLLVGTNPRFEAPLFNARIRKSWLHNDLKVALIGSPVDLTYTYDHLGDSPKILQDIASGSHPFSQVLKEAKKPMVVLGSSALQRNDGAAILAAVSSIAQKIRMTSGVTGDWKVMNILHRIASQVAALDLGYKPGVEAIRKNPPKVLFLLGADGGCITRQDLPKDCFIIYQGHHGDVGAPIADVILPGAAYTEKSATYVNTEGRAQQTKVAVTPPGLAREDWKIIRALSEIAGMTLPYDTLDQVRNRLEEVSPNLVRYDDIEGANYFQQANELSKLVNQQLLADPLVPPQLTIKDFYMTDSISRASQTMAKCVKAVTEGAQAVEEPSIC
UniProt O43776: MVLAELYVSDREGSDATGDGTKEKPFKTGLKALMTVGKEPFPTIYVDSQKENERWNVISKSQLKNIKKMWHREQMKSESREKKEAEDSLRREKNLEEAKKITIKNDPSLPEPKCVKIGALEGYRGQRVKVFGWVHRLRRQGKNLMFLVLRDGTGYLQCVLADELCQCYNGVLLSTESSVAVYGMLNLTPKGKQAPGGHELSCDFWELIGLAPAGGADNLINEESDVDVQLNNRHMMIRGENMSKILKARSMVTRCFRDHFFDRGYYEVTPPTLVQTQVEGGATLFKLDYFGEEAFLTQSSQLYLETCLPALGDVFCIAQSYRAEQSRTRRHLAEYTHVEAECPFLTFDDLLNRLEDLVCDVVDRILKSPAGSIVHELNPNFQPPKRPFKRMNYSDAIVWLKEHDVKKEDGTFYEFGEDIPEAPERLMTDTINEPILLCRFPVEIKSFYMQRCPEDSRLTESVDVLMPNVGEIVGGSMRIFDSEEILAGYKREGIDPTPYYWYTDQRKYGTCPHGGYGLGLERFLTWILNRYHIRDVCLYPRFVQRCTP

Assays:
Test in all cases: log2 fold change, soluble protein after heating vs DMSO (PISA); higher = thermal stabilisation; K562 cells, 10 uM, 30 min; active = over 0.2 and 3.5 SD of the protein, either way, in both replicates (recomputed)
[1] = compound: CN1CCN(CCOc2cc(OC3CCOCC3)c3c(Nc4c(Cl)ccc5c4OCO5)ncnc3c2)CC1 [saracatinib]
How it was run: (§1)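 K562 cells (2×10^6 cells/mL) were treated with 10 μM compound for 30 min, and aliquots were heated for 3 min over 48°C-58°C. Pooled aliquots were extracted in PBS with 0.5% NP-40 at 4°C, and the supernatant after 21,000xg for 90 min was measured by TMTpro 16plex LC-MS/MS with channel sums equalised. Reported thermal stability, relative to control samples and from duplicates, is a log2 fold change.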

[2] = compound: CN1CCN(c2nc(C3=C(c4c[nH]c5ccccc45)C(=O)NC3=O)c3ccccc3n2)CC1 [sotrastaurin]
How it was run: as §1

[3] = compound: CN1CC[C@H](c2c(O)cc(O)c3c(=O)cc(-c4ccccc4Cl)oc23)[C@H](O)C1 [alvocidib]
How it was run: as §1

[4] = compound: CN1CCc2c(c3ccccc3n2Cc2ccc(C(=O)NO)cc2)C1 [Tubastatin A]
How it was run: as §1

[5] = compound: CNC(=O)C1=CC=CC=C1NC2=NC(=NC=C2Cl)NC3=C(C=C(C=C3)N4CCOCC4)OC
How it was run: as §1

[6] = compound: CNC(=O)c1ccc(Nc2ncc(C(F)(F)F)c(NCc3nccnc3N(C)S(C)(=O)=O)n2)cc1 [defactinib]
How it was run: as §1

[7] = compound: CNCc1ccc(-c2[nH]c3cc(F)cc4c3c2CCNC4=O)cc1 [rucaparib]
How it was run: as §1

[8] = compound: CNc1nc(-c2ccc3c(N)n[nH]c3c2)cc(N2C[C@@H](C(=O)NC3CCCCC3)CC[C@H]2C)n1
How it was run: as §1

[9] = compound: COC(=O)N[C@@H](C)CNc1nccc(-c2cn(C(C)C)nc2-c2cc(Cl)cc(NS(C)(=O)=O)c2F)n1 [encorafenib]
How it was run: as §1

[10] = compound: COC(=O)[C@H](CCSC)NC(=O)C1=C(C=C(C=C1)NC[C@H](CS)N)C2=CC=CC=C2
How it was run: as §1

[11] = compound: COC1=CC=C(C=C1)CN2C=CC3=C2C=C(C=C3)C(=O)NO
How it was run: as §1

[12] = compound: CON(C)C(=O)N1N=C(c2cc(F)ccc2F)S[C@@]1(CCCN)c1ccccc1 [filanesib]
How it was run: as §1

[13] = compound: CO[C@H]1C[C@@H]2CC[C@@H](C)[C@@](O)(O2)C(=O)C(=O)N2CCCC[C@H]2C(=O)O[C@H]([C@H](C)C[C@@H]2CC[C@H](n3cnnn3)[C@H](OC)C2)CC(=O)[C@H](C)/C=C(\C)[C@@H](O)[C@@H](OC)C(=O)[C@H](C)C[C@H](C)/C=C/C=C/C=C/1C [zotarolimus]
How it was run: as §1

[14] = compound: COc1cc(C(=O)O)ccc1NC(=O)[C@@H]1N[C@@H](CC(C)(C)C)[C@](C#N)(c2ccc(Cl)cc2F)[C@H]1c1cccc(Cl)c1F [idasanutlin]
How it was run: as §1

[15] = compound: COc1cc(Nc2ncc3c(n2)-c2ccc(Cl)cc2C(c2c(F)cccc2OC)=NC3)ccc1C(=O)O [alisertib]
How it was run: as §1

[16] = compound: COc1cc2nc(-c3cc(F)ccc3O)nc(N[C@@H]3CNC[C@H]3C(C)(C)O)c2cc1OC
How it was run: as §1

[17] = compound: COc1cc2ncnc(Nc3ccc(F)c(Cl)c3)c2cc1OCCCN1CCOCC1 [gefitinib]
How it was run: as §1

[18] = compound: COc1cccc2cc(-c3nc([C@H]4CC[C@H](C(=O)O)CC4)n4ncnc(N)c34)[nH]c12
How it was run: as §1

[19] = compound: CS(=O)(=O)CCNCc1ccc(-c2ccc3ncnc(Nc4ccc(OCc5cccc(F)c5)c(Cl)c4)c3c2)o1 [lapatinib]
How it was run: as §1

[20] = compound: CS(=O)(=O)N1CCN(Cc2cc3nc(-c4cccc5[nH]ncc45)nc(N4CCOCC4)c3s2)CC1 [pictilisib]
How it was run: as §1

Measured: log2 fold change

NAPRT (UniProt Q6XQN6)
inactive: [1] 0.033 | [2] 0.028 | [3] -0.015 | [4] -0.057 | [5] 0.018 | [6] -0.013 | [7] -0.055 | [8] -0.059 | [9] -0.011 | [10] 0.027 | [11] -0.034 | [12] -0.018 | [13] 0.02 | [14] -0.016 | [15] -0.042 | [16] 0.076 | [17] 0.008 | [18] 0.065 | [19] -0.014 | [20] 0.11

NEDD1 isoform 3 (UniProt Q8NHV4)
inactive: [1] 0.024 | [2] -0.022 | [3] -0.034 | [4] -0.034 | [5] -0.05 | [6] -0.024 | [7] 0.035 | [8] -0.034 | [9] -0.025 | [10] 0.003 | [11] -0.005 | [12] -0.003 | [13] -0.004 | [14] -0.018 | [15] -0.031 | [16] 0.025 | [17] 0.01 | [18] 0.03 | [19] -0.058 | [20] 0.153

NDUFB5 (UniProt O43674)
inactive: [1] 0.079 | [2] -0.001 | [3] 0.005 | [4] -0.006 | [5] -0.021 | [6] -0.007 | [7] -0.035 | [8] -0.019 | [9] 0.008 | [10] 0.035 | [11] 0.033 | [12] -0.069 | [13] -0.024 | [14] -0.007 | [15] -0.019 | [16] -0.191 | [17] -0.013 | [18] 0.05 | [19] 0.078 | [20] -0.063

Taken from the results shown (two entries):
NEDD1 isoform 3 (UniProt Q8NHV4)
inactive: [1] 0.024 | [2] -0.022 | [3] -0.034 | [4] -0.034 | [5] -0.05 | [6] -0.024 | [7] 0.035 | [8] -0.034 | [9] -0.025 | [10] 0.003 | [11] -0.005 | [12] -0.003 | [13] -0.004 | [14] -0.018 | [15] -0.031 | [16] 0.025 | [17] 0.01 | [18] 0.03 | [19] -0.058 | [20] 0.153

NDUFB5 (UniProt O43674)
inactive: [1] 0.079 | [2] -0.001 | [3] 0.005 | [4] -0.006 | [5] -0.021 | [6] -0.007 | [7] -0.035 | [8] -0.019 | [9] 0.008 | [10] 0.035 | [11] 0.033 | [12] -0.069 | [13] -0.024 | [14] -0.007 | [15] -0.019 | [16] -0.191 | [17] -0.013 | [18] 0.05 | [19] 0.078 | [20] -0.063

Following part.

NDUFS5 (UniProt O43920)
inactive: [1] 0.001 | [2] 0.09 | [3] 0.023 | [4] -0.025 | [5] 0.049 | [6] -0.018 | [7] -0.02 | [8] -0.075 | [9] -0.013 | [10] 0.037 | [11] -0.042 | [12] 0.017 | [13] -0.044 | [14] -0.004 | [15] 0.02 | [16] -0.046 | [17] -0.035 | [18] 0.083 | [19] -0.058 | [20] 0.041

NAA30 (UniProt Q147X3)
inactive: [1] 0.013 | [2] 0.063 | [3] 0.011 | [4] 0.019 | [5] -0.028 | [6] -0.055 | [7] 0.052 | [8] 0.034 | [9] -0.036 | [10] -0.017 | [11] -0.037 | [12] -0.093 | [13] 0.062 | [14] -0.027 | [15] -0.06 | [16] -0.047 | [17] 0.019 | [18] 0.067 | [19] 0.066 | [20] -0.004

NAP1L5 (UniProt Q96NT1)
inactive: [1] 0.066 | [2] 0.033 | [3] 0.043 | [4] 0.027 | [5] -0.014 | [6] -0.081 | [7] -0.217 | [8] -0.064 | [9] 0.004 | [10] 0.012 | [11] 0 | [12] -0.023 | [13] -0.003 | [14] 0.09 | [15] -0.005 | [16] 0.072 | [17] -0.006 | [18] 0.017 | [19] 0.034 | [20] -0.055

NCBP2 (UniProt P52298)
inactive: [1] -0.015 | [2] -0.031 | [3] -0.013 | [4] -0.04 | [5] -0.02 | [6] -0.008 | [7] -0.008 | [8] 0.001 | [9] -0.005 | [10] -0.019 | [11] -0.132 | [12] 0.002 | [13] 0.01 | [14] -0.002 | [15] -0.014 | [16] 0.099 | [17] 0.072 | [18] -0.003 | [19] -0.037 | [20] 0.048

NDUFA13 (UniProt Q9P0J0)
inactive: [1] 0.015 | [2] -0.024 | [3] -0.069 | [4] -0.014 | [5] -0.011 | [6] 0.023 | [7] -0.016 | [8] 0.06 | [9] -0.005 | [10] 0.024 | [11] 0.043 | [12] -0.092 | [13] 0.021 | [14] -0.019 | [15] -0.026 | [16] -0.088 | [17] 0 | [18] 0.043 | [19] 0.036 | [20] 0.044

NCSTN (UniProt Q92542)
inactive: [1] 0.05 | [2] 0.024 | [3] -0.019 | [4] 0.016 | [5] -0.033 | [6] -0.025 | [7] -0.075 | [8] -0.079 | [9] 0.022 | [10] 0.001 | [11] -0.091 | [12] 0.012 | [13] -0.028 | [14] -0.069 | [15] -0.009 | [16] -0.026 | [17] 0.022 | [18] 0.06 | [19] -0.043 | [20] 0.082

NAXD (UniProt Q8IW45)
inactive: [1] 0.077 | [2] 0.02 | [3] 0.016 | [4] 0.208 | [5] -0.013 | [6] 0.006 | [7] 0.072 | [8] -0.065 | [9] -0.019 | [10] 0.009 | [11] -0.038 | [12] -0.014 | [13] -0.012 | [14] -0.008 | [15] -0.068 | [16] -0.039 | [17] -0.007 | [18] -0.053 | [19] 0.018 | [20] -0.003

NECAP1 (UniProt Q8NC96)
inactive: [1] 0.015 | [2] -0.021 | [3] -0.057 | [4] 0.009 | [5] 0.04 | [6] -0.09 | [7] -0.046 | [8] 0.009 | [9] -0.004 | [10] -0.016 | [11] -0.002 | [12] -0.053 | [13] 0.071 | [14] -0.02 | [15] -0.021 | [16] -0.001 | [17] 0.022 | [18] 0.046 | [19] 0.004 | [20] 0.114

NDUFAF3 (UniProt Q9BU61)
inactive: [1] 0.105 | [2] -0.042 | [3] -0.099 | [4] -0.012 | [5] -0.002 | [6] 0.023 | [7] -0.035 | [8] 0.031 | [9] -0.003 | [10] -0.008 | [11] 0.012 | [12] -0.163 | [13] 0.016 | [14] -0.088 | [15] -0.028 | [16] -0.077 | [17] 0.01 | [18] 0.06 | [19] 0.068 | [20] 0.075

NDUFS1 isoform 2 (UniProt P28331)
inactive: [1] -0.01 | [2] 0.016 | [3] -0.103 | [4] -0.058 | [5] 0.002 | [6] -0.035 | [7] 0.004 | [8] -0.002 | [9] 0 | [10] -0.002 | [11] -0.045 | [12] -0.094 | [13] 0.024 | [14] -0.162 | [15] -0.01 | [16] 0.018 | [17] -0.016 | [18] 0.011 | [19] -0.03 | [20] -0.007

NARS1 (UniProt O43776)
inactive: [1] 0.01 | [2] 0.051 | [3] 0.032 | [4] -0.051 | [5] -0.022 | [6] 0.011 | [7] -0.017 | [8] -0.061 | [9] -0.017 | [10] 0.064 | [11] -0.02 | [12] 0.016 | [13] -0.002 | [14] 0.059 | [15] -0.031 | [16] 0.009 | [17] -0.005 | [18] 0.022 | [19] -0.038 | [20] 0

NAA15, A0A0B4J1W3
inactive: [1] 0.063 | [2] 0.21 | [3] -0.036 | [4] -0.102 | [5] 0.002 | [6] 0.01 | [7] 0.015 | [8] -0.007 | [9] 0.023 | [10] 0.083 | [11] 0.118 | [12] 0.131 | [13] 0.019 | [14] -0.118 | [15] 0.1 | [16] 0.076 | [17] -0.043 | [18] -0.078 | [19] -0.117 | [20] 0.016
